Measured values reported in article doi:10.1101/2020.11.23.391516.
Read-outs that look alike come from different tables or passages of the source. Results are given in words; binding and its absence hold for the method and conditions named. In cells and extracts the contact can be indirect. A result given as binding can be weak or reduced; the word gives no strength. Tags and fused reporters may be left off the sequences shown.

Legend:
[1] = target: T1, SOBIR1 (rBiFC fusion) (Arabidopsis thaliana) (UniProt Q9SKB2); experiment: split reporter
T1 sequence: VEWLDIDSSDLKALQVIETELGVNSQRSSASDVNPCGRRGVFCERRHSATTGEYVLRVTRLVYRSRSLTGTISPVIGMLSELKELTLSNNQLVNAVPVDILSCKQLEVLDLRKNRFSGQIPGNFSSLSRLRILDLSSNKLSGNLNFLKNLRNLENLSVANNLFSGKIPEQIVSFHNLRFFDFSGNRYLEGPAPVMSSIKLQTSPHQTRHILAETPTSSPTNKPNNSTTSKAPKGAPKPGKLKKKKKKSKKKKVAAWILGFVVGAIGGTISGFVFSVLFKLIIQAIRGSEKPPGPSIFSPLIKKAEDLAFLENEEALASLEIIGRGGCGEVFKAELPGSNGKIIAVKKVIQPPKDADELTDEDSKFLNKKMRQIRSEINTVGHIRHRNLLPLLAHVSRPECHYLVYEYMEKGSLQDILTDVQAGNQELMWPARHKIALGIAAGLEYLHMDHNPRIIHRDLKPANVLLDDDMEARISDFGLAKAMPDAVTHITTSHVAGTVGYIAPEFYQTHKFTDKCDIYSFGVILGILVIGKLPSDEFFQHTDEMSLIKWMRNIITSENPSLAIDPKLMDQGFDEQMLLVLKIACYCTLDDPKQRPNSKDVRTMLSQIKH

[2] = target: T2, SOBIR1-GFP (Arabidopsis thaliana) (UniProt Q9SKB2); experiment: co-IP
T2 sequence: T1 sequence

[3] = target: T2, SOBIR1-GFP (Arabidopsis thaliana); experiment: co-IP; remark: listed apart in the source

binding [2]	binding [3]	Substance	binding [1]
–	–	ADR1-L1 (rBiFC fusion) (Arabidopsis thaliana)	binds
binds	binds	ADR1-L1-HA (Arabidopsis thaliana)	–
–	binds	PBL31-HA (from UniProt F4I2C7)	–
–	binds	ADR1-L2-HA (Arabidopsis thaliana)	–
–	–	ADR1-L2 (rBiFC fusion) (Arabidopsis thaliana)	binds
